Source: patent US20220002403A1
No constants are given. Whether binding was seen depends on the method and setting. Some entries that bind do so weakly or less than the wild type.

Amino acid sequences for entries named in this document (tags omitted). A change or cut given only in a name is not applied to a line headed by its entry.
UniProt Q8N423: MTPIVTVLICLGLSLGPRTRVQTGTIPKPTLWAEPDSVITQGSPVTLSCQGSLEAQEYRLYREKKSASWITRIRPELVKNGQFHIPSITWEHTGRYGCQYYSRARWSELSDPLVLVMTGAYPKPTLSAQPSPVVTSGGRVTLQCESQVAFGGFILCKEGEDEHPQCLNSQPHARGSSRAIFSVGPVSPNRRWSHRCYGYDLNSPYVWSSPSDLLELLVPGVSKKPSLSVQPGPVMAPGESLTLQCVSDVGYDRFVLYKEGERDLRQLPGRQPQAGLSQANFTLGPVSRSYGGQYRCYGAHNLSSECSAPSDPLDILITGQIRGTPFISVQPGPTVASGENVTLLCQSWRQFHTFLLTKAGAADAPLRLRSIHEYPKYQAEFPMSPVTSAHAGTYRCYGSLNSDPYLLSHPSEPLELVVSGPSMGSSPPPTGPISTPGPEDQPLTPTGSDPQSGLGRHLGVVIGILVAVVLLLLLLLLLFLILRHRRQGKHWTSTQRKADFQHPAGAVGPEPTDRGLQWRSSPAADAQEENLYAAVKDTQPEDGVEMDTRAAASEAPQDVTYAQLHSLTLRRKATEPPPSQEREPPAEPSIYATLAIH

Assays:
[1] = target: human ILT4 haplotype 9 expressed on mouse 3A9 T cells (human) (UniProt Q8N423); assay: flow cytometry on 3A9 T cells expressing ILT4 allelic variants, 10 ug/mL antibody
[2] = target: human ILT4 haplotype 10 expressed on mouse 3A9 T cells (human) (UniProt Q8N423); assay: as above
[3] = target: human ILT4 haplotype 7 expressed on mouse 3A9 T cells (human) (UniProt Q8N423); assay: as above
[4] = target: endogenous human ILT4 on primary human cells (PBMC; tumor histoculture myeloid cells) (human) (UniProt Q8N423); assay: FACS of tumor histoculture cell suspensions
[5] = target: endogenous human ILT4 on primary human cells (PBMC; tumor histoculture myeloid cells) (human) (UniProt Q8N423); assay: FACS of RCC and CRC tumor histoculture cell suspensions; surface-bound 1E1(G4) detected with an anti-IgG4 secondary antibody

Measured: binding

B1: 1E1(G4) (antibody, human IgG4 S228P, lambda, V domains shown)
VH: EVQLQQWGAGLLKPSETLSLTCAVYGGSFSGYYWSWIRQPPGKGLEWIGEINHAGSTNYNPSLKSRVTISVDTSKNQFSLKLSSVTAADTAVYYCARLPTRWVTTRYFDLWGRGTLVTVSS
VL: ESVLTQPPSVSGAPGQRVTISCTGSSSNIGAGYDVHWYQQLPGTAPKLLIYGDSNRPSGVPDRFSVSKSGASASLAITGLQAEDEADYYCQSFDNSLSAYVFGGGTQLTVLG
binds: [1] | [2] | [3] | [4] | [5]
